Whole data set: some 33,000 sequences, median “E-score (-0.5 to 0.5)” near -0.0014, cut for the highest 2% near 0.25. The list shows a part of the results.
biological target: T1, Cad1 (UniProt P24813); assay: PBM E-score (8-mer binding enrichment) (E-score (-0.5 to 0.5)); higher = stronger / more preferred TF binding; conditions: protein concentration: 100 nM; construct: GST-full length
T1 sequence: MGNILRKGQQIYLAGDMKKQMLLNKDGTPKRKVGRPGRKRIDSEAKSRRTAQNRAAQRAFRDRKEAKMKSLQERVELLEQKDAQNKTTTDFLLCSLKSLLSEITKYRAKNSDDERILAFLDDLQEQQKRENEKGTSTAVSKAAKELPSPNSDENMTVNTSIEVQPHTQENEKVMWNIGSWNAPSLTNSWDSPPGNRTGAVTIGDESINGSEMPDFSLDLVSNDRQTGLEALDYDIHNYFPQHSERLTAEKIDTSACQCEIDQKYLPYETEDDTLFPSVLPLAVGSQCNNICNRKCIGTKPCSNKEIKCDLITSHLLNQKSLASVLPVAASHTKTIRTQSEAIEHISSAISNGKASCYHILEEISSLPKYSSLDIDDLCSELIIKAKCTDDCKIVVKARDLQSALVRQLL
In short: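 Full-length yeast transcription factors or their DNA-binding domains, GST-tagged and expressed with PURExpress, were applied at about 100-200 nM to universal all-10-mer Agilent arrays. These arrays had been made double-stranded by primer extension on fresh or once-stripped slides. Detection used fluorescent anti-GST, normalisation used masliner, and E-scores for ungapped eight-base words pooled with reverse complements came from the Universal PBM Analysis Suite.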

| Sequence | PBM E-score |
| --- | --- |
| ACGCCCCG | -0.0769 |
| CAGAGCCG | -0.0105 |
| GATTCAAA | -0.0456 |
| CATCCCAC | -0.368 |
| GTTTGGGA | 0.0291 |
| AACAAGCT | -0.0349 |
| ACACCACT | 0.187 |
| CCACCCGC | -0.196 |
| CAAATTCA | -0.108 |
| AATGTCCA | 0.0701 |
| GATTTACC | 0.0452 |
| ATGGCAAT | 0.0002 |
| CTAGCTAC | -0.0695 |
| GACCGGGA | -0.151 |
| GTAATTGA | 0.11 |
| AGTCCGAG | 0.0467 |
| ACAACCAT | 0.281 |
| AGCTCACC | -0.14 |
| CCACTGAG | -0.337 |
| GATCCAAA | 0.061 |
| TACTACTA | 0.157 |
| AGCACTGG | -0.0911 |
| CGCGATTC | 0.268 |
| AGATCACC | 0.0249 |
| ACCGCATC | -0.116 |

| Sequence | PBM E-score |
| --- | --- |
| CGAATCAG | 0.0798 |
| ACACTCGT | -0.0805 |
| CTCATCTA | -0.0841 |
| TACCGGGA | -0.00202 |
| AGTACAGA | 0.0616 |
| AACATTAA | 0.127 |
| CCATACCC | -0.202 |
| CGGAGACA | 0.161 |
| CTGTGGGC | -0.0886 |
| GGCACCGA | 0.0761 |
| AGGAGGGC | -0.353 |
| CTGGGAGC | -0.254 |
| CCATTCCA | -0.0291 |
| GCGAAATA | -0.0552 |
| AACGCGTC | 0.197 |
| AAAACATC | -0.0287 |
| CAACAGAG | -0.174 |
| CGCGGTGA | 0.0991 |
| GAAGCAAC | 0.0175 |
| AATCGCGC | 0.327 |
| AAAATTCG | 0.201 |
| ACCCTTAT | 0.105 |
| CCCCCGGA | -0.335 |
| CATAACGC | 0.123 |
| CATAGCGC | 0.26 |

| Sequence | PBM E-score |
| --- | --- |
| GAACTTCC | 0.0173 |
| AGATATCA | 0.209 |
| TGGTATAA | 0.038 |
| CGTTTGAG | 0.00124 |
| CCACACGA | -0.0898 |
| AAACGAAA | 0.287 |
| AAGCTCAG | -0.0186 |
| TAAGCTCA | 0.0541 |
| GATGTGAA | 0.0267 |
| AACGCGTT | 0.153 |
| GTTCCCCA | -0.0947 |
| TAGGAACA | -0.0307 |
| GATATACC | 0.0836 |
| AAACTTCC | -0.0776 |
| AGGAAAAC | 0.0473 |
| CTCACTGC | -0.0454 |
| ATGGCAGC | -0.0816 |
| CATGTAGG | -0.00754 |
| ATGGATAA | 0.158 |
| AGGGAATC | 0.0468 |
| ATAACGAT | -0.0788 |
| GACTATTA | 0.011 |
| TTTAAAAA | 0.0229 |
| AAATACTG | 0.114 |
| ACTGCGCG | 0.0621 |

For convenience, part of the list above.

| Sequence | PBM E-score |
| --- | --- |
| AGGGAATC | 0.0468 |
| ATAACGAT | -0.0788 |
| GACTATTA | 0.011 |

(listing goes on)

| Sequence | PBM E-score |
| --- | --- |
| AGGGAAGA | -0.15 |
| AGCCGTCG | 0.219 |
| CATACGGG | -0.155 |
| CAAGTATA | -0.208 |
| CACGGAGG | -0.131 |
| AGAGCCGA | -0.0145 |
| AGCTTTCC | -0.168 |
| ATCCGAAC | -0.0852 |
| CTAGTACA | 0.0848 |
| GGCTATTA | 0.175 |
| AGGTGAGA | 0.0223 |
| CGTACCAA | 0.256 |
| CTCTGTGA | 0.123 |
| AAACAGCG | 0.182 |
| GTGGACGA | 0.0929 |
| ACCACGAA | -0.099 |
| ACGTGATG | 0.0396 |
| ATTGAGCA | -0.0157 |
| AAGCTGTA | 0.00646 |
| GTACAAGA | -0.0727 |
| AGCTGTTA | 0.167 |
| AGAACCCT | -0.217 |
| CTCCTAGA | -0.115 |
| CAAATAGA | 0.0788 |
| AAAATGAC | 0.132 |

| Sequence | PBM E-score |
| --- | --- |
| ACCCTCGA | -0.137 |
| CGGAGGGC | -0.259 |
| CTTCAATC | -0.066 |
| ACATTAAT | 0.182 |
| TCCGACGA | 0.0646 |
| CATTGCAC | 0.109 |
| CAATTCCC | 0.113 |
| TGCGTCAA | -0.039 |
| AACCTAGC | -0.07 |
| AGAGAGAG | -0.214 |
| CCGTTGGA | -0.182 |
| GATTGTCA | 0.117 |
| ATAACCCA | 0.0872 |
| CAGACTAG | 0.0266 |
| CCATCGAA | 0.0932 |
| CACCAGTG | -0.0993 |
| ACGGCTGC | -0.0784 |
| CTCAGGAG | -0.279 |
| ATAATCGA | 0.146 |
| CAGTTGGG | -0.0373 |
| AGAGTGGG | -0.233 |
| ACTTCCGC | 0.012 |
| CAGTTCCC | -0.0464 |
| CGCTGGAC | -0.125 |
| AGTTTCAC | 0.0282 |

Looked up one by one from the list above, five records:

| Sequence | PBM E-score |
| --- | --- |
| CTCACTGC | -0.0454 |
| AAAATTCG | 0.201 |
| AAATACTG | 0.114 |
| ATCCGAAC | -0.0852 |
| ACCACGAA | -0.099 |

The list goes on.

| Sequence | PBM E-score |
| --- | --- |
| ACGCATAC | 0.125 |
| ACCGTCGC | 0.087 |
| CTATTGCA | 0.0473 |
| ACCTGTGG | -0.217 |
| ACATGACT | -0.0936 |
| CGCAGTCA | -0.122 |
| TACGTACA | 0.0186 |
| AAGTCAGG | 0.08 |
| ACTTGCGG | -0.0852 |
| ACCAGCTG | 0.074 |
| AAGATAGA | 0.0137 |
| CAGGTATA | 0.0535 |
| CATATCAA | 0.259 |
| GGCCCCAA | -0.0912 |
| CGCTAGGC | -0.177 |
| AGCCGAAT | 0.0754 |
| AACGCTGG | -0.0444 |
| ACGTATTC | 0.121 |
| AGGTACGC | -0.0312 |
| CCTTATCG | 0.0678 |
| GCTTCGCC | -0.3 |
| CTTTTGCA | 0.112 |
| CACCCAAA | 0.0573 |
| ACCAATAA | -0.00211 |
| CTGCGTAA | 0.0735 |

| Sequence | PBM E-score |
| --- | --- |
| TCCAGGAA | 0.00079 |
| CCATAGGA | 0.00218 |
| AAATTCAG | 0.21 |
| GTGCAAAA | 0.0709 |
| GAACCACC | -0.00416 |
| AGTCAGCG | 0.216 |
| ATCCAGAG | 0.0179 |
| GTCGGAGA | -0.0335 |
| ACTGCTGC | -0.0542 |
| TCCCCTAA | -0.13 |
| TCGCAAGA | -0.181 |
| CTTGACGC | -0.0616 |
| AACGTCGG | 0.0485 |
| ATAGCTTA | 0.0713 |
| CATGATGC | 0.0704 |
| ATGGCTAG | -0.0638 |
| CCGTGCGC | 0.0355 |
| AGGAGACC | -0.166 |
| CGTGTGCC | -0.014 |
| ATGGCGCG | 0.00983 |
| GCAGCCCC | -0.0114 |
| ACCTTACG | 0.193 |

— the supplement of paper PMC3334620
